Changes are numbered by the printed parent chain. Construct, isoform or probe ends are uncertain for at least one entry. For some of these results: Weaker means in comparison with the reference protein, sequence or condition of that experiment. Where a protein sequence is shown, tags need not be part of it.
Columns and labels:
Assay in all cases: enzyme reaction in vitro
[1] = test system: T1, BsmI R300D (Bacillus stearothermophilus NUB36); conditions: ds-DNA cleavage; protein in an extract; only the site is given
T1 sequence: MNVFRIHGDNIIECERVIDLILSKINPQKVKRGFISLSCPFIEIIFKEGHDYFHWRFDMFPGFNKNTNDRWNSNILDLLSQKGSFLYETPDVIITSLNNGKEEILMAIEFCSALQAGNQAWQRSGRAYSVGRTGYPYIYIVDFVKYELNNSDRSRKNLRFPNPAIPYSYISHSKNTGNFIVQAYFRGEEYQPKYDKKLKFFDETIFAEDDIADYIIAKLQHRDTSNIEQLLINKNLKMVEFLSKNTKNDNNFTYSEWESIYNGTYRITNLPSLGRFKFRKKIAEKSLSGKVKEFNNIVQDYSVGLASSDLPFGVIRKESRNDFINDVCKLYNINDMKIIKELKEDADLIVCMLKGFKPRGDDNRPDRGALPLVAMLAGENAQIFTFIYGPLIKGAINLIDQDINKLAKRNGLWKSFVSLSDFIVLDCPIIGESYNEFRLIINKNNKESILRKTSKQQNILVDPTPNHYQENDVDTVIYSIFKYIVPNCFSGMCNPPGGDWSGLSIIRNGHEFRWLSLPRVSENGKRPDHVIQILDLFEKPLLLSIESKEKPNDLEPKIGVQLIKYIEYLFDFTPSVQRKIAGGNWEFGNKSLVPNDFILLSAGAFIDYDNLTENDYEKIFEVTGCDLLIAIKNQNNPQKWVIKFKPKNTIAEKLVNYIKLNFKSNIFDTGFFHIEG

[2] = test system: T2, BsmI R5D (Bacillus stearothermophilus NUB36); conditions: ds-DNA cleavage; protein in an extract; only the site is given
T2 sequence: T1 sequence with R5D, D300R

[3] = test system: T3, BsmI R367D (Bacillus stearothermophilus NUB36); conditions: low nicking activity; protein in an extract; only the site is given
T3 sequence: T1 sequence with D300R, R367D

[4] = test system: T4, BsmI R266D (Bacillus stearothermophilus NUB36); conditions: ds-DNA cleavage; protein in an extract; only the site is given
T4 sequence: T1 sequence with R266D, D300R

GCATTC [pBR322 supercoiled plasmid (one BsmI site)]
activity on this sequence [1]: active | activity on this sequence [2]: active | activity on this sequence [3]: less active | activity on this sequence [4]: active
